# Structures can show the parent of a compound that is named as a salt. This is one part of the list. Repeats in this data set agree poorly, so a single value says little.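 Human kidney-derived cells stably carry a construct in which eight TEAD-binding elements drive luciferase, measured by luminescence in a drug-repurposing library screen. A hit is any compound whose signal exceeds the plate mean by more than five robust Z scores.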
# Test system: HEK293A TEAD-LUC reporter
# Assay: TEAD-luciferase reporter activity (YAP activation), robust Z score vs plate; higher = stronger YAP/TEAD activation
# Conditions: 24 h
Structure (SMILES),TEAD-luciferase reporter activity (compound concentration: 200 nM),TEAD-luciferase reporter activity (compound concentration: 2 uM),TEAD-luciferase reporter activity (compound concentration: 10 uM)
Cc1cc(C2CCCN2)on1 (centres undefined),inactive: -0.986,inactive: 1.24,inactive: -2.1
CN1CC2CCCC(C1)C2OC(=O)C(O)(c1ccccc1)C1CCCC1 [L-Phencynonate hydrochloride],inactive: -0.506,inactive: -2.52,inactive: 2.53
CNCC12CCC(c3ccccc31)c1ccccc12 [benzoctamine],inactive: -0.0191,inactive: 0.736,inactive: 2.28
CC1=C2[C@H]3OC(=O)[C@@H](C)[C@@H]3CC[C@@]2(C)C=CC1=O,inactive: -0.59,inactive: 0.0159,inactive: 2.34
CCCN(CCCCN1CCNCCC1=O)C(C)Cc1ccc(S(C)(=O)=O)cc1 (centres undefined),inactive: -0.942,inactive: -0.521,inactive: 2.57
C[C@@H](NC(=O)[C@@H](N)Cc1ccc(O)cc1)C(=O)N[C@@H](Cc1ccc(F)cc1)C(=O)N[C@@H](Cc1ccccc1)C(N)=O,inactive: -0.89,inactive: -1.11,inactive: -0.673
OC(c1ccccc1)(c1ccccc1)C1CN2CCC1CC2 (centres undefined),inactive: -0.877,inactive: 4.14,inactive: 1.02
CC1(C)C(=O)N(c2ccc(C#N)c(C(F)(F)F)c2F)C(=S)N1c1ccc(CCCc2ncco2)nc1 [Proxalutamide],inactive: 0.737,inactive: 0.692,inactive: -0.17
O=C(C1CCCN1S(=O)(=O)c1ccccc1)N1CCC(N2CCCC2=O)CC1 (centres undefined),inactive: -1.78,–,–
C[C@H](N)[C@H](O)c1ccc(O)c(O)c1,inactive: -1.46,inactive: -1.24,inactive: -1.7
CC(=O)[C@H]1CC[C@H]2[C@@H]3CCC4C[C@](C)(O)CC[C@]4(C)[C@H]3CC[C@]12C (some centres undefined) [Ganaxolone],inactive: 0.627,inactive: 0.138,inactive: -0.122
N[C@H]1C[C@@H](C(=O)O)CC1=C(F)F,inactive: -2.43,inactive: -1.7,inactive: 0.618
CSCCC1NC(=O)C(CC(C)C)NC(=O)C(CCCNC(=N)N)NC(=O)C(CO)NC(=O)C2CSSCC3NC(=O)C(CO)NC(=O)CNC(=O)C(C(C)O)NC(=O)C(CSSCC(N)C(=O)NC(CCCCN)C(=O)NCC(=O)NC(CCCCN)C(=O)NCC(=O)NC(C)C(=O)NC(CCCCN)C(=O)N2)NC(=O)C(CSSCC(C(N)=O)NC(=O)C(CCCCN)NC(=O)CNC(=O)C(CO)NC(=O)C(CCCNC(=N)N)NC3=O)NC(=O)C(CC(=O)O)NC(=O)C(Cc2ccc(O)cc2)NC1=O (centres undefined) [Ziconotide],inactive: -1.26,inactive: -1.34,inactive: -0.525
CCOC(=O)C1N=C(c2ccccc2Cl)c2cc(Cl)ccc2NC1=O (centres undefined) [ethyl dirazepate],inactive: 0.661,inactive: -1.31,inactive: -1.04
S=C(NC1CCCCC1)N1CCC(c2c[nH]cn2)CC1,–,inactive: -1.71,–
S=C(NC1CCCCC1)N1CCC(c2c[nH]cn2)CC1 [Thioperamide maleate],inactive: 2.68,–,inactive: 2
CCNC(=O)C1OC(n2cnc3c(N)ncnc32)C(O)C1O (centres undefined),inactive: -1.27,inactive: -1.26,inactive: -0.442
CCC[C@@H](C)C[C@H](N)CC(=O)O,inactive: -0.617,inactive: -1,inactive: 0.0383
CC(C)NC(=O)N1CNC(=O)C12CCN(C(=O)CN)CC2,inactive: 1.29,–,inactive: -0.541
C#CCCN1CCC2(O)c3cc(O)ccc3CC1C2(C)C (centres undefined) [butinazocine],inactive: 1.62,inactive: 0.131,inactive: 1.29
N#C[C@H](O[C@@H]1O[C@H](CO[C@@H]2O[C@H](CO)[C@@H](O)[C@H](O)[C@H]2O)[C@@H](O)[C@H](O)[C@H]1O)c1ccccc1 [Amygdalin],inactive: -1.06,inactive: -0.31,inactive: 1.29
CN1C2CCC1CC(OC1c3ccccc3CCc3ccccc31)C2 (centres undefined),inactive: -0.691,inactive: -1.21,inactive: -0.0269
Cc1ccc(C2CC2)c(OCC2=NCCN2)c1,inactive: -0.472,inactive: -0.349,inactive: 1.79
C[C@]12CC[C@H]3[C@@H](CC[C@@]45O[C@@H]4C(=O)C(C#N)C[C@]35C)[C@@H]1CC[C@@H]2O (some centres undefined) [Trilostane],inactive: -1.15,inactive: -0.328,inactive: -1.37
Cn1ncnc1COc1nn2c(-c3c(F)cccc3F)nnc2cc1C1CCC1,inactive: -0.321,inactive: 1.74,inactive: -2.42
CCOC(CNC)c1cccc(C(F)(F)F)c1 (centres undefined),inactive: -1.54,inactive: 2.03,inactive: 2.84
Fc1ccc([C@@]2(Cn3cncn3)O[C@H]2c2ccccc2Cl)cc1,active: 5.8,inactive: -1.32,inactive: 0.682
CCOC(=O)C(CCN1CCOCC1)(c1ccccc1)c1ccccc1,inactive: 0.139,inactive: 0.615,inactive: 0.984

Structure (SMILES),TEAD-luciferase reporter activity (compound concentration: 200 nM),TEAD-luciferase reporter activity (compound concentration: 2 uM),TEAD-luciferase reporter activity (compound concentration: 10 uM)
Oc1ccc2c3c1O[C@H]1[C@H](O)CC[C@@]4(O)[C@@H](C2)N(CC2CC2)CC[C@]314 [6beta-naltrexol],inactive: -1.15,inactive: 1.66,inactive: 1.31
CS(=O)(=O)OCCN(CCCl)c1ccc(C(=O)N[C@@H](CCC(=O)O)C(=O)O)cc1,inactive: -2.11,inactive: 0.00255,inactive: 0.346
NC[C@H](O)C[PH](=O)O,inactive: -1.17,–,inactive: -0.114
C[C@]12CC[C@H]3[C@@H](CCC4=CC(=O)CC[C@@H]43)[C@@H]1CC[C@@H]2OC(=O)N(CCCl)N=O,inactive: 0.134,inactive: -0.93,inactive: -0.811
Oc1cccc[c]1[Hg][Cl],inactive: -1.32,inactive: 0.283,inactive: 0.714
C[C@H](Cc1ccc(OCC(=O)O)cc1)NC[C@H](O)c1cccc(Cl)c1,inactive: -0.0565,inactive: -0.873,inactive: -1.66
C/C(=C\[C@H](C(C)C)N(C)C(=O)[C@@H](NC(=O)[C@H]1CCCCN1C(C)C)C(C)(C)C)C(=O)O,inactive: -0.275,active: 6.76,active: 6.81
CN1CCC2=C(C1)c1ccccc1Cc1ccccc12 [setiptiline],inactive: 1.13,inactive: -1.11,inactive: 1.71
COc1cc2c(cc1OC)C(c1cccc(Cl)c1)=NN=C(C)C2,inactive: -0.447,inactive: -1.29,inactive: -0.787
CCCCOCC(CN1C(=O)N(CC(COCCCC)OC(N)=O)C(=O)C(CC)(c2ccccc2)C1=O)OC(N)=O (centres undefined) [Difebarbamate],inactive: -0.0179,inactive: -1.17,inactive: 2.42
Nc1cc(OCC2CC2)c(C(=O)NC2CN3CCC2CC3)cc1Cl (centres undefined) [Pancopride],inactive: -2.65,inactive: 0.596,inactive: -0.131
CC(=O)OC1CCC2(C)C(=CCC3C2CCC2(C)C(OC(C)=O)CCC32)C1 (centres undefined),inactive: -0.853,inactive: 0.816,active: 7.71
CCCC(C)(COC(N)=O)COC(=O)NC(C)C (centres undefined) [Carisoprodol (Sanoma)],–,inactive: -1.33,–
CCCC(C)(COC(N)=O)COC(=O)NC(C)C (centres undefined),inactive: 0.744,–,inactive: -0.0677
C=C(C)CC1(CC)C(=O)NC(=S)NC1=O,inactive: 2.25,inactive: -0.99,inactive: -2.21
"CNC(=O)Oc1ccc2c(c1)C1(C)CCN(C)C1N2C (centres undefined) [physostigmine, Calabar]",inactive: 1.95,inactive: -1.78,inactive: -0.607
O=C(O)c1cc2ccccc2n1Cc1ccc(Cl)cc1,inactive: 0.836,inactive: 3.73,inactive: 1.49
"COc1ccc2c3c1O[C@H]1C=CC=C4C(C2)NCCC431 (some centres undefined) [Norcodeine, derivative of]",inactive: -0.839,inactive: -1.13,inactive: 1.01
CN(C(=O)/C=C/c1ccoc1)[C@@H]1CC[C@@]2(O)[C@H]3Cc4ccc(O)c5c4[C@@]2(CCN3CC2CC2)[C@H]1O5 [Nalfurafine Hydrochloride],inactive: -1.3,inactive: -0.559,inactive: -2.66
O=C(CCNc1c2ccccc2nc2ccccc12)OCCN(CCCl)CCCl [Amustaline],inactive: -1.55,inactive: -1.04,inactive: -0.474
COc1ccc(CCNCC(O)c2ccccc2)cc1OC (centres undefined),active: 5.18,inactive: -1.13,inactive: -2.01
Nc1ncnc2c1ncn2CCOCP(=O)(O)O [Adefovir],inactive: -1.03,–,inactive: -0.55
O=C(O)CCCCCCNC1c2ccccc2CCc2ccccc21 [amineptine],inactive: 4.08,inactive: 1.24,inactive: -2.17
CCC(=O)O[C@H]1CC[C@H]2[C@@H]3CC[C@H]4CC(=O)[C@H](C)C[C@]4(C)[C@H]3CC[C@]12C [Drostanolone Propionate],inactive: -0.887,inactive: -0.522,inactive: -1.36
Clc1ccc(OCC2CCN2)cn1 (centres undefined),inactive: 0.651,inactive: -0.992,inactive: 0.0873
CC1Sc2c(C(=O)O)c(=O)c3cc(F)c(N4CCNCC4)cc3n21 (centres undefined) [Ulifloxacin],inactive: -1.23,inactive: -1.51,inactive: -0.65
CCC[C@@H](C)C[C@H](CN)CC(=O)O,inactive: -0.592,inactive: -0.616,inactive: 1.03

# Random excerpt: 2 entries already listed, in no set order.
Structure (SMILES),TEAD-luciferase reporter activity (compound concentration: 200 nM),TEAD-luciferase reporter activity (compound concentration: 2 uM),TEAD-luciferase reporter activity (compound concentration: 10 uM)
CN1CCC2=C(C1)c1ccccc1Cc1ccccc12 [setiptiline],inactive: 1.13,inactive: -1.11,inactive: 1.71
CCCC(C)(COC(N)=O)COC(=O)NC(C)C (centres undefined) [Carisoprodol (Sanoma)],–,inactive: -1.33,–
